Experimental data: PubChem BioAssay AID1224826 (NIAID, 2016)
Screen: 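Genes that change LPS-induced Tnf promoter activity in mouse macrophages when knocked down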 (primary screen). Cells: RAW264.7 G9 macrophages from mouse bearing reporters for p65 (GFP) and the Tnf promoter (mCherry). Reagent: siRNA pool against mouse genes, 100 nM. Timing: 16 h of LPS stimulation, after 2 days of siRNA transfection. Challenge: bacterial lipopolysaccharide (Salmonella minnesota R595), 10 ng/ml. Read-out: 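Imaged Tnf reporter mCherry in nuclei, minus background, normalised per plate to the median and expressed as robust z-scores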. Direction: Tnf reporter robust z-score: higher = stronger Tnf promoter reporter signal after LPS; Tnf reporter intensity: higher = stronger Tnf promoter reporter signal. Active means: 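Called active when robust z-score is at most -1.3, matching the median of the Tlr4 knock-down control, or over 3; control wells and wells with under 50 cells never active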. Calls: active = Tnf reporter clearly lowered or raised; inactive = no clear change in Tnf reporter.
This is an unselected part of about 17,000 reagents tested. Of all reagents, about 1,110 (6.6%) got an active call. 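Active means lowered or raised reporter signal; replicate intensities are raw and not normalised per plate.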 A number with no mark means an inactive call.

gene symbol | Tnf reporter robust z-score | fewer than 50 cells in well | Tnf reporter intensity, replicate 1 | Tnf reporter intensity, replicate 2
Ptgfr | -0.44 | enough cells in well | 288 | 59.3
Det1 | -0.98 | enough cells in well | 170 | 41.6
Kat8 | -0.28 | enough cells in well | 197 | 75.4
Zfp52 | 1.43 | enough cells in well | 182 | 187
Il36a | -0.24 | enough cells in well | 187 | 114
Dppa1 | – | fewer than 50 cells per well; well left out of calls | 149 | 120
Cck | -0.36 | enough cells in well | 232 | 167
Prpf39 | -1.59 (active) | enough cells in well | 61.9 | 57.9
Tsga10 | -0.42 | enough cells in well | 98.1 | 79.6
Gstm1 | -0.8 | enough cells in well | 203 | 104
Zmym3 | 4.13 (active) | enough cells in well | 129 | 313
Eya3 | 2.34 | enough cells in well | 444 | 375
C530043K16Rik | 0.74 | enough cells in well | 119 | 206
Plxnb1 | -0.57 | enough cells in well | 195 | 158
Pcdhb8 | -1.75 (active) | enough cells in well | 125 | 53.5
Sqstm1 | – | fewer than 50 cells per well; well left out of calls | 211 | 97.3
Egr3 | -0.16 | enough cells in well | 220 | 215
Mims2 | – | fewer than 50 cells per well; well left out of calls | 158 | 54
Or7a39 | 0.26 | enough cells in well | 200 | 114
Klf12 | 1.69 | enough cells in well | 402 | 217
Dnase2b | 2.48 | enough cells in well | 310 | 233
Or1e33 | 0.99 | enough cells in well | 272 | 139
Or7e170 | -0.5 | enough cells in well | 286 | 56.2
Creg2 | 0.85 | enough cells in well | 306 | 155
Cul4a | -1.02 | enough cells in well | 157 | 130
Camkk1 | 0.52 | enough cells in well | 236 | 181
Fchsd2 | 0.76 | enough cells in well | 318 | 167
Foxo4 | -1.31 (active) | enough cells in well | 166 | 98.9
Tnfrsf8 | -0.93 | enough cells in well | 162 | 39.4
Tcte2 | 0.09 | enough cells in well | 121 | 95.5
Coro1c | -0.51 | enough cells in well | 209 | 154
Lzts2 | 2.01 | enough cells in well | 333 | 233
Grm7 | -0.5 | enough cells in well | 166 | 267
Psmb6 | 2.11 | enough cells in well | 410 | 338
Pde8a | -1.16 | enough cells in well | 180 | 85.3
Ppia | -0.62 | enough cells in well | 84.6 | 121
Cdx1 | -0.68 | enough cells in well | 187 | 163
Rbpjl | -1.1 | enough cells in well | 186 | 135
Rnf43 | – | fewer than 50 cells per well; well left out of calls | 138 | 39.7
6430548M08Rik | 0.33 | enough cells in well | 178 | 181
Ahnak | – | fewer than 50 cells per well; well left out of calls | 303 | 146
Ntsr1 | 1.71 | enough cells in well | 326 | 168
Slc7a13 | -0.19 | enough cells in well | 114 | 74.7
Eda2r | -0.17 | enough cells in well | 198 | 239
Or5t18 | 0.51 | enough cells in well | 220 | 135
Zfp940 | -0.91 | enough cells in well | 157 | 127
E130114P18Rik | 1.75 | enough cells in well | 398 | 117
Cbr4 | 2.07 | enough cells in well | 301 | 409
Isl1 | 0.34 | enough cells in well | 275 | 162
Abcd4 | -1.05 | enough cells in well | 129 | 124
B3galt5 | 0.99 | enough cells in well | 242 | 206
Nherf2 | – | fewer than 50 cells per well; well left out of calls | 76.7 | 857
Cbfa2t2 | -1.09 | enough cells in well | 114 | 171
Fgf13 | 0.15 | enough cells in well | 262 | 255
Gusb | -1.22 | enough cells in well | 119 | 167
Fgg | 0.51 | enough cells in well | 287 | 289
Zfp418 | -1.58 (active) | enough cells in well | 85.4 | 65.6
Ankrd61 | -0.26 | enough cells in well | 119 | 61.1

An excerpt from above, reduced to “fewer than 50 cells in well”.
Il36a	enough cells in well
Dppa1	fewer than 50 cells per well; well left out of calls
Cck	enough cells in well
Prpf39	enough cells in well (active)
Tsga10	enough cells in well
